Test [1] concerns the target T1, ADR1-FLAG (Arabidopsis thaliana) (UniProt Q9FW44).
T1 sequence: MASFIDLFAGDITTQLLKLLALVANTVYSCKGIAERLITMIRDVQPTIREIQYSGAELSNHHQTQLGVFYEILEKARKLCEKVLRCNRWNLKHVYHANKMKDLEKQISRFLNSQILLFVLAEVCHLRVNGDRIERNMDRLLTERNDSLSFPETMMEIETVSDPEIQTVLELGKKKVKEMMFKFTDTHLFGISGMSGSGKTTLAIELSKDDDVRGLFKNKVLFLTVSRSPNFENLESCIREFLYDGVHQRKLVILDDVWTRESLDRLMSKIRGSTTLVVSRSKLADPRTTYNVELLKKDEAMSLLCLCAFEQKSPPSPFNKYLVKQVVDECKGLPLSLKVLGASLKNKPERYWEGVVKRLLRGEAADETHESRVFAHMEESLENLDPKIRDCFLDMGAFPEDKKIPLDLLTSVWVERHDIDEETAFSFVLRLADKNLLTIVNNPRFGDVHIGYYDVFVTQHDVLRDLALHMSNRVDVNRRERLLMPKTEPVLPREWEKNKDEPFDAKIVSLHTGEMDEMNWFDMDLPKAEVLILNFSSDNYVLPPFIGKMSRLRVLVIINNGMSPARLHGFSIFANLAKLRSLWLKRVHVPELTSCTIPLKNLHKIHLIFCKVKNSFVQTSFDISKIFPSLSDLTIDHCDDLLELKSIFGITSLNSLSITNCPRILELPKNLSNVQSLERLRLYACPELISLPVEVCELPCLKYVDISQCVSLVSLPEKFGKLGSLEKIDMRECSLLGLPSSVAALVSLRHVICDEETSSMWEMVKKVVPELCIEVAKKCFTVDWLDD
Nature of the test: co-IP.

Protein sequences, listed by entry. Tags and fused reporters are not part of them.
UniProt Q8RSY1: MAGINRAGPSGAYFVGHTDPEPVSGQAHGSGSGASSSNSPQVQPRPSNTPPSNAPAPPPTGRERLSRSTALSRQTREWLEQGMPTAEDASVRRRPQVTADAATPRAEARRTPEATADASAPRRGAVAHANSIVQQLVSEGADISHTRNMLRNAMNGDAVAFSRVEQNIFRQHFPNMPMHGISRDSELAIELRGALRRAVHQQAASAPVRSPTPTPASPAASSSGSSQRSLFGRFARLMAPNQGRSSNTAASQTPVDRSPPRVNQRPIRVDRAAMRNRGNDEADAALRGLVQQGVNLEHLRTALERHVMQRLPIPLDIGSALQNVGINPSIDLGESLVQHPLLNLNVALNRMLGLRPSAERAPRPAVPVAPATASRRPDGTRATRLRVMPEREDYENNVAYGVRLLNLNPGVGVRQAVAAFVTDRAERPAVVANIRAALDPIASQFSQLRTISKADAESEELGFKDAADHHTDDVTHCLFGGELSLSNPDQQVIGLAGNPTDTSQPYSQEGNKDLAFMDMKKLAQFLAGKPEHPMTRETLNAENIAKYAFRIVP

Test [2] addresses ADR1-cLuc (Arabidopsis thaliana) (UniProt Q9FW44). As to the kind of experiment: split reporter.
For test [3], the target named is T1, ADR1-FLAG (Arabidopsis thaliana). Nature of the test: co-IP. This is another data set of the same source.

Where two headings read alike, the source gives them in different places. No constants are given. Whether binding was seen depends on the method and setting. Binding seen in cells or lysates may run through a third protein. Some results given as binding are weak or reduced against the parent protein; the word gives no strength. For part of these data: Where a sequence is shown, tags or fusion partners need not be part of it.

As for AvrPtoB-HA (from UniProt Q8RSY1 1-553), the binding result in test [1] is given as “binds”.

Consider “AvrPtoB-nLuc (from UniProt Q8RSY1 1-553)”, for which the binding entry in test [2] is “binds”.

B1: 3xHA-tagged SNC1 (natural protein, Arabidopsis thaliana, UniProt O23530 1-1437, looked up)
chain: MMDTSKDDDMEIASSSGSRRYDVFPSFRGEDVRDSFLSHLLKELRGKAITFIDDEIERSRSIGPELLSAIKESRIAIVIFSKNYASSTWCLNELVEIHKCYTNLNQMVIPIFFHVDASEVKKQTGEFGKVFEETCKAKSEDEKQSWKQALAAVAVMAGYDLRKWPSEAAMIEELAEDVLRKTMTPSDDFGDLVGIENHIEAIKSVLCLESKEARIMVGIWGQSGIGKSTIGRALYSKLSIQFHHRAFITYKSTSGSDVSGMKLRWEKELLSEILGQKDIKIEHFGVVEQRLKQQKVLILLDDVDSLEFLKTLVGKAEWFGSGSRIIVITQDRQLLKAHEIDLIYEVEFPSEHLALTMLCRSAFGKDSPPDDFKELAFEVAKLAGNLPLGLSVLGSSLKGRTKEWWMEMMPRLRNGLNGDIMKTLRVSYDRLHQKDQDMFLYIACLFNGFEVSYVKDLLKDNVGFTMLTEKSLIRITPDGYIEMHNLLEKLGREIDRAKSKGNPGKRRFLTNFEDIHEVVTEKTGTETLLGIRLPFEEYFSTRPLLIDKESFKGMRNLQYLEIGYYGDLPQSLVYLPLKLRLLDWDDCPLKSLPSTFKAEYLVNLIMKYSKLEKLWEGTLPLGSLKEMNLRYSNNLKEIPDLSLAINLEELDLVGCKSLVTLPSSIQNATKLIYLDMSDCKKLESFPTDLNLESLEYLNLTGCPNLRNFPAIKMGCSDVDFPEGRNEIVVEDCFWNKNLPAGLDYLDCLTRCMPCEFRPEQLAFLNVRGYKHEKLWEGIQSLGSLEGMDLSESENLTEIPDLSKATKLESLILNNCKSLVTLPSTIGNLHRLVRLEMKECTGLEVLPTDVNLSSLETLDLSGCSSLRSFPLISTNIVWLYLENTAIEEIPSTIGNLHRLVRLEMKKCTGLEVLPTDVNLSSLETLDLSGCSSLRSFPLISESIKWLYLENTAIEEIPDLSKATNLKNLKLNNCKSLVTLPTTIGNLQKLVSFEMKECTGLEVLPIDVNLSSLMILDLSGCSSLRTFPLISTNIVWLYLENTAIEEIPSTIGNLHRLVKLEMKECTGLEVLPTDVNLSSLMILDLSGCSSLRTFPLISTRIECLYLQNTAIEEVPCCIEDFTRLTVLMMYCCQRLKTISPNIFRLTRLELADFTDCRGVIKALSDATVVATMEDHVSCVPLSENIEYIWDKLYRVAYLQEHFSFRNCFKLDRDARELILRSCFKPVALPGEEIPKYFTYRAYGDSLTVIVPQSSLSQNFLRFKACVVVEPLSKGKGFYPFLKVNVGFNGKQYQKSFSKDAELELCKTDHLFFCSFKFRSEDLPSKLNFNDVEFKFCCSNRIKECGVRLMYVSQEENNQQTTRSEKRMRMTSGTSEEDINLPYGLIVADTGLAALNMELSLGQGEPSSSTSLEGEALCVDYMITEEQDKGIPILFPVSGN
For B1, the binding result in test [3] is “binds”.

Source of the values: publication doi:10.1101/2023.03.23.533910 (bioRxiv, 2023).
